The source of these data is paper PMC7359096.

The chains behind the UniProt entries cited, without tags or fusion partners.
UniProt P35579: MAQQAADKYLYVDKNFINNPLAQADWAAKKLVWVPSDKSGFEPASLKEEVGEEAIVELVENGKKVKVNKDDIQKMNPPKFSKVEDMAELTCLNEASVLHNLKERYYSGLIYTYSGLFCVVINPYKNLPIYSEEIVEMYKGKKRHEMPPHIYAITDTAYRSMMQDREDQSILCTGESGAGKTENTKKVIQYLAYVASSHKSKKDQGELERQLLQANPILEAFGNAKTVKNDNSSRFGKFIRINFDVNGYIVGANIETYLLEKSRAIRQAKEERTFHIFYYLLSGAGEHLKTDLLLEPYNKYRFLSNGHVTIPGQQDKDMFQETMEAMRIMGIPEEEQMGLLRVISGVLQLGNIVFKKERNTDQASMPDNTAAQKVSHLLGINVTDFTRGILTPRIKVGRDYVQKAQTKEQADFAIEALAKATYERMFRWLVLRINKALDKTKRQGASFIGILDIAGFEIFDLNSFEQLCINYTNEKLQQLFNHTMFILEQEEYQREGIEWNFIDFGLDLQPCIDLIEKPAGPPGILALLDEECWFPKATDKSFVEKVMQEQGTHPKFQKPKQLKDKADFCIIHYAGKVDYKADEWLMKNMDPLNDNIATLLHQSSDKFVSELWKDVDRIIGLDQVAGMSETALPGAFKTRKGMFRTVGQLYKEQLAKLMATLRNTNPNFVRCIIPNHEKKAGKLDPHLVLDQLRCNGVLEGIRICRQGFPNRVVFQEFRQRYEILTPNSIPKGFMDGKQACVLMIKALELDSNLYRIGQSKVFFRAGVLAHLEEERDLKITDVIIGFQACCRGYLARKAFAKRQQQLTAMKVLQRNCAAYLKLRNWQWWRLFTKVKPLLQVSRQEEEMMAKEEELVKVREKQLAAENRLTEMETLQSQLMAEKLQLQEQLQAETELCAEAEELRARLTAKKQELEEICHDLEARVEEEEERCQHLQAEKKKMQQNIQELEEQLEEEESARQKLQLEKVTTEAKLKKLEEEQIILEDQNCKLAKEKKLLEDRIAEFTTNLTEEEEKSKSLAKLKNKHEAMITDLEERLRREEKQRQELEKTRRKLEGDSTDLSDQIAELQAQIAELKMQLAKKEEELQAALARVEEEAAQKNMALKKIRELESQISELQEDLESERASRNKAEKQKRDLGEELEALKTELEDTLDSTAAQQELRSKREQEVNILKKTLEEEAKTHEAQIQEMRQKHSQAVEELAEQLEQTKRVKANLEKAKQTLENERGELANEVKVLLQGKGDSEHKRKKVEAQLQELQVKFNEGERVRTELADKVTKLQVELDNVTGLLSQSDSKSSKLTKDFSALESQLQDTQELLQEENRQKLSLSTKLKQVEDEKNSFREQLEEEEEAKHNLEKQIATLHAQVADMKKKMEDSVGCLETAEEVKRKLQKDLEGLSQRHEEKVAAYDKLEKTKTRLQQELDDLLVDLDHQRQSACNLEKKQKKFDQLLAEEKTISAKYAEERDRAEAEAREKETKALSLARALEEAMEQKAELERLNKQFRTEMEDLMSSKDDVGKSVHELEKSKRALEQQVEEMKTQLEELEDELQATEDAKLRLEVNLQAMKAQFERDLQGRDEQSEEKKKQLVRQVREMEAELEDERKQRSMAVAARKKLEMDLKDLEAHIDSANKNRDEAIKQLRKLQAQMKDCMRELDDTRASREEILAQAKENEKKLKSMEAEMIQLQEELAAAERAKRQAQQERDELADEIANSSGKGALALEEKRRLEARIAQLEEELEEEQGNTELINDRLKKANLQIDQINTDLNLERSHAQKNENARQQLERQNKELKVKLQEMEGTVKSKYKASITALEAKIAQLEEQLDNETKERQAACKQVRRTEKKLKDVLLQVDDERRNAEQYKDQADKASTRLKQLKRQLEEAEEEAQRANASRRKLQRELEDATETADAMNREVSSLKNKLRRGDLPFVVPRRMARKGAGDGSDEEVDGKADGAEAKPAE
UniProt Q00403: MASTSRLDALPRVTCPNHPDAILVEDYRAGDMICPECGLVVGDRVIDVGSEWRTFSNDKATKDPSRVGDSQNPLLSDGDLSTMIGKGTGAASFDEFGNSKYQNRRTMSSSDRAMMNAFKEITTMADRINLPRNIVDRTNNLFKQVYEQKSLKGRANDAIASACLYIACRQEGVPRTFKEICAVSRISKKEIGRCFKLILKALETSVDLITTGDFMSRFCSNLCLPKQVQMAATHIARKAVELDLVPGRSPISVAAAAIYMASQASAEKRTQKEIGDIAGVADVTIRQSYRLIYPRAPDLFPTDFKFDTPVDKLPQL

No constants are given. Whether binding was seen depends on the method and setting. In cells and extracts the contact can be indirect. Some entries that bind do so weakly or less than the wild type.

The test concerns the target myosin heavy chain 9 (MYH9) (human (endogenous in MGC 80-3)) (UniProt P35579). The test can be described thus: co-IP; nuclear protein extract of MGC 80-3 cells, IP with a MYH9 antibody, western blot; rabbit IgG as negative control. (In general: Immunoblotting shows a protein as a band on a membrane.)

For “transcription factor II B (TFIIB) (from UniProt Q00403 1-316)”, the binding entry is listed as “binds”.

B1: myosin light chain 9 (MYL9) (protein, UniProt P24844 1-172)
chain: MSSKRAKAKTTKKRPQRATSNVFAMFDQSQIQEFKEAFNMIDQNRDGFIDKEDLHDMLASLGKNPTDEYLEGMMSEAPGPINFTMFLTMFGEKLNGTDPEDVIRNAFACFDEEASGFIHEDHLRELLTTMGDRFTDEEVDEMYREAPIDKKGNFNYVEFTRILKHGAKDKDD
For the molecule B1, the binding entry is on record as “binds”.
